Consider four molecules from article PMC3405998.

The target of test [1] is GST-Cdc4ΔF (budding yeast). Briefly: pull-down; GST fusions pulled down on glutathione-sepharose 4B from lysates of grr1Δ yeast expressing Myc-tagged Cln1 or Cln2 proteins; galactose induction 8 hours; HEPES lysis buffer pH 7.6, 400 mM NaCl, 0.2% Triton X-100, 4°C, 2 hours, seven washes; Myc and GST Western blots. (In general: Immunoblotting shows a protein as a band on a membrane.)

Test [2] addresses GST-Grr1ΔF (budding yeast). Described as above.
In test [3] the target is GST-Grr1ΔF (budding yeast). Nature of the test: pull-down; GST fusions pulled down on glutathione-sepharose 4B from lysates of grr1Δ cdc4-1 yeast expressing Myc-tagged Cln3 proteins; galactose induction 20-22 hours; HEPES lysis buffer pH 7.6, 400 mM NaCl, 0.2% Triton X-100, 4°C, 2 hours, seven washes; Myc and GST Western blots.
For test [4], the target named is GST-Cdc4ΔF (budding yeast). The description is as above.

No constants are given. Whether binding was seen depends on the method and setting. In cells and extracts the contact can be indirect. A result given as binding can be weak or reduced; the word gives no strength. Tags and fused reporters may be left off the sequences shown.

B1: Cln1-13Myc (protein, UniProt P20437 1-546)
chain: MNHSEVKTGLIVTAKQTYYPIELSNAELLTHYETIQEYHEEISQNVLVQSSKTKPDIKLIDQQPEMNPHQTREAIVTFLYQLSVMTRVSNGIFFHAVRFYDRYCSKRVVLKDQAKLVVGTCLWLAAKTWGGCNHIINNVSIPTGGRFYGPNPRARIPRLSELVHYCGGSDLFDESMFIQMERHILDTLNWDVYEPMINDYILNVDENCLIQYELYKNQLQNNNSNGKEWSCKRKSQSSDDSDATVEEHISSSPQSTGLDGDTTTMDEDEELNSKIKLINLKRFLIDLSCWQYNLLKFELYEICNGMFSIINKFTNQDQGPFLSMPIGNDINSNTQTQVFSIIINGIVNSPPSLVEVYKEQYGIVPFILQVKDYNLELQKKLQLASTIDLTRKIAVNSRYFDQNASSSSVSSPSTYSSGTNYTPMRNFSAQSDNSVFSTTNIDHSSPITPHMYTFNQFKNESACDSAISVSSLPNQTQNGNMPLSSNYQNMMLEERNKENRIPNSSSAEIPQRAKFMTTGIFQNTGELTNRASSISLSLRNHNSSQL
In the case of B1, the binding result in test [1] and in test [2] was “binds” in each case.

B2: Cln2-13Myc (protein, UniProt P20438 1-545)
chain: MASAEPRPRMGLVINAKPDYYPIELSNAELLSHFEMLQEYHQEISTNVIAQSCKFKPNPKLIDQQPEMNPVETRSNIITFLFELSVVTRVTNGIFFHSVRLYDRYCSKRIVLRDQAKLVVATCLWLAAKTWGGCNHIINNVVIPTGGRFYGPNPRARIPRLSELVHYCGDGQVFDESMFLQMERHILDTLNWNIYEPMINDYVLNVDENCLMQYELYENQVTYDKQCSEKRQSQLSQDSDATVDERPYQNEEEEEEDLKLKIKLINLKKFLIDVSAWQYDLLRYELFEVSHGIFSIINQFTNQDHGPFLMTPMTSESKNGEILSTLMNGIVSIPNSLMEVYKTVNGVLPFINQVKEYHLDLQRKLQIASNLNISRKLTISTPSCSFENSNSTSIPSPASSSQSHTPMRNMSSLSDNSVFSRNMEQSSPITPSMYQFGQQQSNSICGSTVSVNSLVNTNNKQRIYEQITGPNSNNATNDYIDLLNLNESNKENQNPATAHYLNGGPPKTSFINHGMFPSPTGTINSGKSSSASSLISFGMGNTQVI
In the case of B2, the binding entry in test [1] and in test [2] was “binds” throughout.

B3: Cln3Δ22-13Myc (domain or fragment, UniProt P13365 1-558)
chain: MAILKDTIIRYANARYATASGTSTATAASVSAASCPNLPLLLQKRRAIASAKSKNPNLVKRELQAHHSAISEYNNDQLDHYFRLSHTERPLYNLTNFNSQPQVNPKMRFLIFDFIMYCHTRLNLSTSTLFLTFTILDKYSSRFIIKSYNYQLLSLTALWISSKFWDSKNRMATLKVLQNLCCNQYSIKQFTTMEMHLFKSLDWSICQSATFDSYIDIFLFQSTSPLSPGVVLSAPLEAFIQQKLALLNNAAGTAINKSSSSQGPSLNINEIKLGAIMLCELASFNLELSFKYDRSLIALGAINLIKLSLNYYNSNLWENINLALEENCQDLDIKLSEISNTLLDIAMDQNSFPSSFKSKYLNSNKTSLAKSLLDALQNYCIQLKLEEFYRSQELETMYNTIFAQSFDSDSLTCVYSNATTPKSATVSSAATDYFSDHTHLRRLTKDSISPPFAFTPTSSSSSPSPFNSPYKTSSSMTTPDSASHHSHSGSFSSTQNSFKRSLSIPQNSSIFWPSPLTPTTPSLMSNRKLLQNLSVRSKRLFPVRPMATAHPCSAPTQL
On to B3, for which the binding entry in test [3] is given as “binds”.

B4: Cln3-13Myc (protein, UniProt P13365 1-580)
chain: MAILKDTIIRYANARYATASGTSTATAASVSAASCPNLPLLLQKRRAIASAKSKNPNLVKRELQAHHSAISEYNNDQLDHYFRLSHTERPLYNLTNFNSQPQVNPKMRFLIFDFIMYCHTRLNLSTSTLFLTFTILDKYSSRFIIKSYNYQLLSLTALWISSKFWDSKNRMATLKVLQNLCCNQYSIKQFTTMEMHLFKSLDWSICQSATFDSYIDIFLFQSTSPLSPGVVLSAPLEAFIQQKLALLNNAAGTAINKSSSSQGPSLNINEIKLGAIMLCELASFNLELSFKYDRSLIALGAINLIKLSLNYYNSNLWENINLALEENCQDLDIKLSEISNTLLDIAMDQNSFPSSFKSKYLNSNKTSLAKSLLDALQNYCIQLKLEEFYRSQELETMYNTIFAQSFDSDSLTCVYSNATTPKSATVSSAATDYFSDHTHLRRLTKDSISPPFAFTPTSSSSSPSPFNSPYKTSSSMTTPDSASHHSHSGSFSSTQNSFKRSLSIPQNSSIFWPSPLTPTTPSLMSNRKLLQNLSVRSKRLFPVRPMATAHPCSAPTQLKKRSTSSVDCDFNDSSNLKKTR
Consider B4, for which the binding entry in test [4] and in test [3] was “binds” in each case.
